Measurements as given in PMC13156308.
Results are given in words; binding and its absence hold for the method and conditions named. In cells and extracts the contact can be indirect. These calls come from enrichment with a bait or labelling near it, and not all partners need be listed.

Amino acid sequences for entries named in this document (tags omitted). A change or cut given only in a name is not applied to a line headed by its entry. Chains listed by the source or under a name are the forms on record and can include a tag or linker.
UniProt P97310: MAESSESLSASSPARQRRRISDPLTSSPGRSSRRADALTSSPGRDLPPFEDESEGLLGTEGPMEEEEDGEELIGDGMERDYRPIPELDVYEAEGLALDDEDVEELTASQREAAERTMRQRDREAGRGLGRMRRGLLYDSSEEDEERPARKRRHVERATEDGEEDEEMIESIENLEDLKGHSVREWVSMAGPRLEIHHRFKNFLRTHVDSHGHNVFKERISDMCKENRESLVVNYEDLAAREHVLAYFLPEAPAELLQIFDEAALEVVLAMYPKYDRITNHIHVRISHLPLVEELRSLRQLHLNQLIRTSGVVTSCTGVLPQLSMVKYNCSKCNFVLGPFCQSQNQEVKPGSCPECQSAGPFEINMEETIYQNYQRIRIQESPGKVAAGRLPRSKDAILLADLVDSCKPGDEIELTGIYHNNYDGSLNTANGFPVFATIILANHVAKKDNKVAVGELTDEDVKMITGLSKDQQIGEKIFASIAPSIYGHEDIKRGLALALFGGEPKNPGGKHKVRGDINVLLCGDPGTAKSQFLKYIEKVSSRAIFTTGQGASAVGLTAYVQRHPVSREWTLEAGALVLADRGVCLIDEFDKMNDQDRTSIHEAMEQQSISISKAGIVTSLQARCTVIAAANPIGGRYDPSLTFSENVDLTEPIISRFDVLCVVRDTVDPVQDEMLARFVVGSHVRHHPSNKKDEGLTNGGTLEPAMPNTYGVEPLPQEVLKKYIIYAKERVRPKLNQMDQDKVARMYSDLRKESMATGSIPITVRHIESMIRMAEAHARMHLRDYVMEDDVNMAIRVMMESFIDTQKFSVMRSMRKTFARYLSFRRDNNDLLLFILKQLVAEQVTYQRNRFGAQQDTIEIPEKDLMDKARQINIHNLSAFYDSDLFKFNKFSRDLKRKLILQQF
MCM2-2A-TurboID-3xHA (mouse) (P97310, form named): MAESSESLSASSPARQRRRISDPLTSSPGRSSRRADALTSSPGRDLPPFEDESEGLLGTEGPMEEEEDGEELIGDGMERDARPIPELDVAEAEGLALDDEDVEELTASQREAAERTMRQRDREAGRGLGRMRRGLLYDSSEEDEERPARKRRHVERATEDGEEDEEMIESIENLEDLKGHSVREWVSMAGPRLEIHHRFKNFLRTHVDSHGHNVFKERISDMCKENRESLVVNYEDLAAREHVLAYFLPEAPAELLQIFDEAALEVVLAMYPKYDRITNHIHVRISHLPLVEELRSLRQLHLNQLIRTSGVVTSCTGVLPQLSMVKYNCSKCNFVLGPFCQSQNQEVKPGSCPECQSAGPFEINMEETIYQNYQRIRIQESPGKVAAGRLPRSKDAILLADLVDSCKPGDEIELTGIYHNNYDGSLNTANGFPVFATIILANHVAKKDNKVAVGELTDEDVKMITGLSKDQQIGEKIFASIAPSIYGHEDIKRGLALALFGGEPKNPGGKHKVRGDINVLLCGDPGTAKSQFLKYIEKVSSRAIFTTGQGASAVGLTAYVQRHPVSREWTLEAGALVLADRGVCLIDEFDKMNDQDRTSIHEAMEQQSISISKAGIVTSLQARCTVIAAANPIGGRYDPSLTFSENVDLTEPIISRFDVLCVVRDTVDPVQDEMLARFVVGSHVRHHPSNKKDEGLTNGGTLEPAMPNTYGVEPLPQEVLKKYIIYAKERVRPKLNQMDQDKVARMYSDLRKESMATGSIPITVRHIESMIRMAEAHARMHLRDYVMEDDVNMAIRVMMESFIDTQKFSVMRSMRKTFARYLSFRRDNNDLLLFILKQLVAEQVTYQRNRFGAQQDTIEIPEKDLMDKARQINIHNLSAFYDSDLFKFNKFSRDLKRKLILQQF
UniProt Q9D0N7: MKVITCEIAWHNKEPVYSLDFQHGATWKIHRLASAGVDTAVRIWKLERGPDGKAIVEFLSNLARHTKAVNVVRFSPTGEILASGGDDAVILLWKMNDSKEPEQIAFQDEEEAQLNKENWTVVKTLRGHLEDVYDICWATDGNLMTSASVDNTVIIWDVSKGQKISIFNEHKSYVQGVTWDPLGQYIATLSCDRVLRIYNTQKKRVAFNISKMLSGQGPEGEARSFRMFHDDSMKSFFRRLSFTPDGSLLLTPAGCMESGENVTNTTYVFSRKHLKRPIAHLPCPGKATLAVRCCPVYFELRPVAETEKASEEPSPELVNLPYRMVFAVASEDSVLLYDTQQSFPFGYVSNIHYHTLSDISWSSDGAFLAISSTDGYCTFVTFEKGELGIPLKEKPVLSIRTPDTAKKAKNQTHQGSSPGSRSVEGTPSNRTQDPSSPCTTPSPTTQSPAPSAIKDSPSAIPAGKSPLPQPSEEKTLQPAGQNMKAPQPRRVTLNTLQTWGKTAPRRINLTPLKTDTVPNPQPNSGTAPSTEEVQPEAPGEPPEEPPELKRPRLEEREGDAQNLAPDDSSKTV
UniProt Q9QWF0: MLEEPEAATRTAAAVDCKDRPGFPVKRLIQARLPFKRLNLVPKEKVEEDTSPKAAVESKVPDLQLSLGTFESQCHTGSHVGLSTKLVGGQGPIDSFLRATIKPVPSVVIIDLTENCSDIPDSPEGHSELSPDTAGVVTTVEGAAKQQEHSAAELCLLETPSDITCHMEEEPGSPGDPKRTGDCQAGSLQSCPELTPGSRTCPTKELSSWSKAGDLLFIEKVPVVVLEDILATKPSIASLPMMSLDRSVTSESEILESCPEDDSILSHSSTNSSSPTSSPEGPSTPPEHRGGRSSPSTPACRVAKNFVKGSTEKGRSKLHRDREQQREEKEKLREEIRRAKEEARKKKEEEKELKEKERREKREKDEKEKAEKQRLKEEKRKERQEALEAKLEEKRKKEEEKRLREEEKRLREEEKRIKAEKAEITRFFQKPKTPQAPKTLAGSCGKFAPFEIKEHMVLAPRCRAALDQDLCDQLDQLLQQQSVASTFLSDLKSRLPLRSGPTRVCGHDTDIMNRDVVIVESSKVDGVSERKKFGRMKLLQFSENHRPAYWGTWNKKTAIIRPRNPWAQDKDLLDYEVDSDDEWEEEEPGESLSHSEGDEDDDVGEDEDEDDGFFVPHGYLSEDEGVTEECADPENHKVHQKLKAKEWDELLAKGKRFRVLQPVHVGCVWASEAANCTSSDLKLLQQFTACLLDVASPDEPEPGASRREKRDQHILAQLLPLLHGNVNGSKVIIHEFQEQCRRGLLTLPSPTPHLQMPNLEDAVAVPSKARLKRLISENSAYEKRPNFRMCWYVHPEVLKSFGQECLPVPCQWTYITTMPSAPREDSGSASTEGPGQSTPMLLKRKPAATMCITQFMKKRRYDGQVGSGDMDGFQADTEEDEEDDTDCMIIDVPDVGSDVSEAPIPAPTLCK
UniProt Q99MD9: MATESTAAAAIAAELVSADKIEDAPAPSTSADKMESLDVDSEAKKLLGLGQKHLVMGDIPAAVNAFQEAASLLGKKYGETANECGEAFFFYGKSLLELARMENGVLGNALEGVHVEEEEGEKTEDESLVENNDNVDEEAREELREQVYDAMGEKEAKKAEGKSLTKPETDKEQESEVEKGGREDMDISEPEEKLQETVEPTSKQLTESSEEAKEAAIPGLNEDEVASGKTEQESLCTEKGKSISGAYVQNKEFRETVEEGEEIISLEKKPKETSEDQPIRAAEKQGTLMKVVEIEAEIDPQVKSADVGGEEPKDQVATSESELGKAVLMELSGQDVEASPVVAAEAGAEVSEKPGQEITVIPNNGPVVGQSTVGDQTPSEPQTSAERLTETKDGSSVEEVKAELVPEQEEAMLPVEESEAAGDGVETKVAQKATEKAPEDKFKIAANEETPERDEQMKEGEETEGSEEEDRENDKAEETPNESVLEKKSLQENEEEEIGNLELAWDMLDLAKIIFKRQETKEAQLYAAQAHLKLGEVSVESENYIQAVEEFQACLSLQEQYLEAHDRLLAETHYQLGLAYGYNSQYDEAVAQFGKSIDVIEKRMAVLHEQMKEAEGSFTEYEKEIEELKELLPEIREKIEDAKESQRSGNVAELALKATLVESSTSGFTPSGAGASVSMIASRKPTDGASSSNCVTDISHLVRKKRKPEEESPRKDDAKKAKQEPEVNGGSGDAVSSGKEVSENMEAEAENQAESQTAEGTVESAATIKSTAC
UniProt Q9JJ66: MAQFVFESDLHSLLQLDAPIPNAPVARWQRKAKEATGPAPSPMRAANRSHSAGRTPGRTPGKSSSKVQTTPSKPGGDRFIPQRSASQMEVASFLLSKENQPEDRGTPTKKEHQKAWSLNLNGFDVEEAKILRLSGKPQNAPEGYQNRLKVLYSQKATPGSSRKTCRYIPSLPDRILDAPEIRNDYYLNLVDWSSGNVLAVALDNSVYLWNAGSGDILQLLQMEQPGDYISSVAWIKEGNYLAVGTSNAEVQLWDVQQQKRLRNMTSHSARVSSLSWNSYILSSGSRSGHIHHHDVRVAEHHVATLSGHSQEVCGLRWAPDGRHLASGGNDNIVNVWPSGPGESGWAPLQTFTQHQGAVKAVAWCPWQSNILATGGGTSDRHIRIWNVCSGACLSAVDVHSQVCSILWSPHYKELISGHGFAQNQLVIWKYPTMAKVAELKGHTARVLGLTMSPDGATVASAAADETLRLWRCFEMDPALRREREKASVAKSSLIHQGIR
UniProt Q61937: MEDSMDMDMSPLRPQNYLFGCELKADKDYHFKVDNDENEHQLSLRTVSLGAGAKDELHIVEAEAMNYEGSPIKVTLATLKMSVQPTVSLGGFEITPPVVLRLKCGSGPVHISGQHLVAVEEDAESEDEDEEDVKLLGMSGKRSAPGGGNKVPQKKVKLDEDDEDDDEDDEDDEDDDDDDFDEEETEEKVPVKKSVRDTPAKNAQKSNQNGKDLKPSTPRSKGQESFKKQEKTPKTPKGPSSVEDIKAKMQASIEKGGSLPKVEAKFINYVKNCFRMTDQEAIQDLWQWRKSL
UniProt O70126: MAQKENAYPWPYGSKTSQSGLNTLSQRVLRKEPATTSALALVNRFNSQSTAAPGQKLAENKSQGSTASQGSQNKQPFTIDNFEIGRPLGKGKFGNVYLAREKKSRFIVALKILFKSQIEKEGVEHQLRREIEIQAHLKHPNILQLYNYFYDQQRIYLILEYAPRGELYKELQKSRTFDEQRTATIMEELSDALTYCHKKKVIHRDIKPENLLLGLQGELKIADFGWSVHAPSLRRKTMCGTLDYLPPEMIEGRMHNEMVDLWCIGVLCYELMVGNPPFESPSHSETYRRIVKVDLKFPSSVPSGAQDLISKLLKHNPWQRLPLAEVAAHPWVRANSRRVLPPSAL
UniProt Q8VEE4: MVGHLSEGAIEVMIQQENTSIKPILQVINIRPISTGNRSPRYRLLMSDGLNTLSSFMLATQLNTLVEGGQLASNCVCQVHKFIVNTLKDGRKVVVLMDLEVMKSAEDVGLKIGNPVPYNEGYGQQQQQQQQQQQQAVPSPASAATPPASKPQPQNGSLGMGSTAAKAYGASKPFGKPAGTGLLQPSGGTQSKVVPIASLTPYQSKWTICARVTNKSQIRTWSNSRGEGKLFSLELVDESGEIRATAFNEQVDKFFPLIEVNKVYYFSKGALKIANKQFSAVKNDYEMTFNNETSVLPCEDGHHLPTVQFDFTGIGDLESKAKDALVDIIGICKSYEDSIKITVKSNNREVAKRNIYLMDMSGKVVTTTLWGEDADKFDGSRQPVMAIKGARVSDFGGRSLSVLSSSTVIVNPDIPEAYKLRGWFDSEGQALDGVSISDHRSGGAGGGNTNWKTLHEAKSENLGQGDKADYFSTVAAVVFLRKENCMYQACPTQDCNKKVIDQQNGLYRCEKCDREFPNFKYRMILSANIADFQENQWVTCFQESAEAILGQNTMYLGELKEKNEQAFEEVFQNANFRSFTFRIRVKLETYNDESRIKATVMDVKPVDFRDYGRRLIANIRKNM
UniProt Q08943: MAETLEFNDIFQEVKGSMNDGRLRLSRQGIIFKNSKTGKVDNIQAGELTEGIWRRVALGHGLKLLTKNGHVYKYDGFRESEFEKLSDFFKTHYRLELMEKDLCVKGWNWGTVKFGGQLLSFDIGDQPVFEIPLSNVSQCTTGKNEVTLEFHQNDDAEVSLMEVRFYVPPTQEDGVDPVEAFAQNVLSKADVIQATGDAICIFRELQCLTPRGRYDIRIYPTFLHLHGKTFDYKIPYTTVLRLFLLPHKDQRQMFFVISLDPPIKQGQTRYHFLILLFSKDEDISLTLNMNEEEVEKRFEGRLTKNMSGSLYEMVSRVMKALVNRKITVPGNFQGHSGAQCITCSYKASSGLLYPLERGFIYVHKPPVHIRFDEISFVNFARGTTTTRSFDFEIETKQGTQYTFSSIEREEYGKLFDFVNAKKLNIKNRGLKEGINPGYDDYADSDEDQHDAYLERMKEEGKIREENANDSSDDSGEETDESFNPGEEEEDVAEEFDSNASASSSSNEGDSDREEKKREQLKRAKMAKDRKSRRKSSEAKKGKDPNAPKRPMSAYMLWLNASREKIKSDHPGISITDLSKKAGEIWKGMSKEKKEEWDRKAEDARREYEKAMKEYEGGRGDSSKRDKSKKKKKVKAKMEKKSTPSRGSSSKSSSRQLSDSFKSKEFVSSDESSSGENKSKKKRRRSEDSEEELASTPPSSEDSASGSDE

Tests used:
[1] = target: T1, POLE3-TurboID (mouse) (UniProt Q9JKP7); test: proximity labelling; bait-TurboID stably expressed in S-phase-synchronised NIH3T3 cells, 500 uM biotin 1 h, RIPA lysis, streptavidin beads, LC-MS/MS, four replicates; enriched: bait/Control >2, P <0.05
T1 sequence: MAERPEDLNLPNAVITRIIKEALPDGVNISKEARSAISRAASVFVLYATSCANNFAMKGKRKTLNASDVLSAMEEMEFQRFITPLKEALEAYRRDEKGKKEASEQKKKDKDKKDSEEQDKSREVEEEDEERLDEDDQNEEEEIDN

[2] = target: T2, POLE4-TurboID (mouse) (UniProt Q9CQ36); test: as above
T2 sequence: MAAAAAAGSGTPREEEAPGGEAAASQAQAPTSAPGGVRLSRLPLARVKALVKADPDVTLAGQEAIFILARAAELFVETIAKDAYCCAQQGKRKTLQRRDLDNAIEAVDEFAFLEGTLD

[3] = target: T1, POLE3-TurboID (mouse); test: proximity labelling; streptavidin beads from bait-TurboID NIH3T3 cells, read by western blot
[4] = target: MCM2-TurboID-3xHA (mouse) (mouse) (UniProt P97310); test: proximity labelling; bait-TurboID stably expressed in S-phase-synchronised NIH3T3 cells, 500 uM biotin 1 h, RIPA lysis, streptavidin beads, LC-MS/MS, four replicates; enriched: bait/Control >2, P <0.05
[5] = target: MCM2-2A-TurboID-3xHA (mouse) (mouse) (UniProt P97310); test: as above

Row | Substance | binding [1] | binding [2] | binding [3] | binding [4] | binding [5]
1 | CHAF1B (from UniProt Q9D0N7 1-572) | binds | binds | – | binds | –
2 | CHAF1A (from UniProt Q9QWF0 1-911) | binds | binds | – | binds | –
3 | NASP (from UniProt Q99MD9 1-773) | binds | binds | – | binds | –
4 | DNMT1 (from UniProt P13864 1-1620) | – | – | – | binds | binds

Further lines, results first:

Row | binding [1] | binding [2] | binding [3] | binding [4] | binding [5] | Substance
5 | binds | binds | – | – | – | CDC20 (from UniProt Q9JJ66 1-499)
6 | binds | binds | binds | binds | – | NPM1 (from UniProt Q61937 1-292)
7 | binds | binds | – | binds | – | Aurora kinase B (AURKB) (from UniProt O70126 1-345)
8 | binds | binds | – | binds | – | RPA1 (from UniProt Q8VEE4 1-623)
9 | binds | binds | – | – | – | CHTF18 (from UniProt Q8BIW9 1-969)
10 | binds | binds | – | binds | – | SSRP1 (mouse) (from UniProt Q08943 1-708)
